Laboratory results from US7842823B2, “Fluorogenic probes for reactive oxygen species” (The Regents of the University of California, priority 2005, dated 2010).
For at least one compound, name, drawing or mass did not settle the structure. Some entries share one result that the patent states for a list of compounds.

Tests used:
[1] = Fluorescence response of the Peroxysensor probes to H2O2 in buffer; details: 20 mM HEPES buffer, pH 7; H2O2 addition
Method: (§1) Millipore water was used to prepare all aqueous solutions. All spectroscopic measurements were performed in 20 mM HEPES buffer, pH 7. Absorption spectra were recorded using a Varian Cary 50 spectrophotometer (Walnut Creek, Calif.). Fluorescence spectra were recorded using a Photon Technology International Quanta Master 4 L-format scanning spectrofluorometer (Lawrenceville, N.J.) equipped with an LPS-220B 75-W xenon lamp and power supply, A-1010B lamp housing with integrated igniter, switchable 814 photon-counting/analog photomultiplier detection unit, and MD5020 motor driver. Samples for absorption and fluorescence measurements were contained in 1-cm×1-cm quartz cuvettes (1.4- or 3.5-mL volume, Starna, Atascadero, Calif.).
The Peroxysensor reagents were evaluated under simulated physiological conditions (20 mM HEPES buffer, pH 7). […] FIG. 4, FIG. 5 and FIG. 6 show the fluorescence responses of PF1, PR1, and PX1, respectively, to H2O2.

[2] = Fluorescence response to various ROS (H2O2 selectivity); details: 20 mM HEPES, pH 7, 25° C.
Method: (§2) FIG. 7 is the fluorescence response of 5 μM PF1 to various ROS (10 mM O2^−, 100 μM for all other ROS). .OH and .Ot-Bu were generated by reaction of Fe^2+ with H2O2 or tert-butyl hydroperoxide (TBHP), respectively. NO was delivered using S-nitrosocysteine (SNOC). Spectra were acquired in 20 mM HEPES, pH 7, and all data were obtained after incubation with the appropriate ROS at 25° C. for 1 h. Collected emission was integrated between 460 and 700 nm (λexc=450 nm).
FIG. 8 is the fluorescence response of 5 μM PR1 to various ROS (10 mM O2^−, 100 μM for all other ROS). .OH and .O^tBu were generated by reaction of Fe^2+ with H2O2 or tert-butyl hydroperoxide (TBHP), respectively. NO was delivered using S-nitrosocysteine (SNOC). Spectra were acquired in 20 mM HEPES, pH 7, and all data were obtained after incubation with the appropriate ROS at 25° C. for 30 min. Collected emission was integrated between 570 and 800 nm (λexc=560 nm).
as §2, with “FIG. 9” for “FIG. 7”, “of 10” for “of 5”, “μM PX1” for “μM PF1”, “between 370” for “between 460”, “and 600” for “and 700”, “nm (λexc=350” for “nm (λexc=450”
as §1
FIG. 7, FIG. 8 and FIG. 9 compare the relative reactivities of boronate-based PF1, PR1, and PX1, respectively, toward various ROS.

[3] = test system: HEK cells; test: Confocal fluorescence imaging of H2O2 in live HEK cells
Method: (a) Fluorescence image of HEK cells incubated with 5 μM PF1 for 5 min at 25° C. (b) Fluorescence image of PF1-stained HEK cells treated with 100 μM H2O2 for 11 min at 25° C. Excitation was provided at 488 nm, and emission was collected in a window from 505 to 580 nm. Scale bar=27 μm.
(a) Fluorescence image of HEK cells incubated with 10 μM PR1 for 10 min at 25° C. (b) Fluorescence image of PR1-stained HEK cells treated with 100 μM H2O2 for 30 min at 25° C. Excitation was provided at 543 nm, and emission was collected in a window from 548 to 644 nm. Scale bar=18 μm.
HEK 293T cells were cultured in Dulbecco's Modified Eagle Medium (DMEM, Invitrogen, Carlsbad, Calif.) supplemented with 10% Fetal Bovine Serum (FBS, Invitrogen), glutamine (2 mM), and penicillin/streptomycin (50 μg/ml, Invitrogen). One day before imaging, cells were passed and plated on 18-mm glass coverslips coated with poly-L-lysine (50 μg/ml, Sigma, St. Louis, Mo.). Immediately before the experiments, cells were washed with PBS buffer, incubated with the probe in PBS, and imaged.
Confocal fluorescence imaging was performed with a Zeiss LSM510 META laser scanning microscope containing an Axioplan 2 MOT upright microscope and a 40× water-immersion objective lens. […]

In the case of CC1(C)OB(c2ccc3c(c2)Oc2cc(B4OC(C)(C)C(C)(C)O4)ccc2C32OC(=O)c3ccccc32)OC1(C)C [PF1, 3′,6′-Bis(pinacolatoboron)fluoran], the “increase in integrated fluorescence intensity (dynamic range) upon reaction with H2O2” value [1] is reported as over 1000 fold, the “higher response for H2O2 over NO” value ([2]; 100 μM ROS, NO delivered using SNOC) is reported as over 500 fold and the “higher response for H2O2 over tert-butyl hydroperoxide (TBHP)” value ([2]; 100 μM ROS) is reported as over 500 fold. For the same compound, the “higher response for H2O2 over −OCl” value ([2]; 100 μM ROS) was over 500 fold, the “higher response for H2O2 over O2−” value ([2]; 10 mM O2−, 100 μM H2O2) was over 500 fold and the “membrane permeability / passive entry into live cells” value [3] was “can passively enter live cells”.
